Measurements from publication PMC10654059.

Amino acid sequences for entries named in this document (tags omitted). A change or cut given only in a name is not applied to a line headed by its entry.
UniProt P0A6Z3: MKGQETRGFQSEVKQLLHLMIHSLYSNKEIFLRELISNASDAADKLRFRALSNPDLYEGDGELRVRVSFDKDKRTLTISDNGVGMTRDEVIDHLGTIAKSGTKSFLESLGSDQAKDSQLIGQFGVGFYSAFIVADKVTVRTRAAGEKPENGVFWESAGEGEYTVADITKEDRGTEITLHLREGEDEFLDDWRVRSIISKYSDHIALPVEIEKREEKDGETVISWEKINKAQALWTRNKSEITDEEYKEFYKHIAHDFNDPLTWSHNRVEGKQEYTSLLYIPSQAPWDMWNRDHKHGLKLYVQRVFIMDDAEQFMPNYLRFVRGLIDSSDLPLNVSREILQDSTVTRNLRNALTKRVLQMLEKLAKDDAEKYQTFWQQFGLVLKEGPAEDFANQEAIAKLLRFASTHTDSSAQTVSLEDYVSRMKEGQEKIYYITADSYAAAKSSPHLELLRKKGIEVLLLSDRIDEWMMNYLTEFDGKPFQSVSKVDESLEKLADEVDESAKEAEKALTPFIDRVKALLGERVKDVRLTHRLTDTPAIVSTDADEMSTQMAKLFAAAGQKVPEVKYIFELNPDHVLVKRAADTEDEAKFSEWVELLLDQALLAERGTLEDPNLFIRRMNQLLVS
UniProt P0A705: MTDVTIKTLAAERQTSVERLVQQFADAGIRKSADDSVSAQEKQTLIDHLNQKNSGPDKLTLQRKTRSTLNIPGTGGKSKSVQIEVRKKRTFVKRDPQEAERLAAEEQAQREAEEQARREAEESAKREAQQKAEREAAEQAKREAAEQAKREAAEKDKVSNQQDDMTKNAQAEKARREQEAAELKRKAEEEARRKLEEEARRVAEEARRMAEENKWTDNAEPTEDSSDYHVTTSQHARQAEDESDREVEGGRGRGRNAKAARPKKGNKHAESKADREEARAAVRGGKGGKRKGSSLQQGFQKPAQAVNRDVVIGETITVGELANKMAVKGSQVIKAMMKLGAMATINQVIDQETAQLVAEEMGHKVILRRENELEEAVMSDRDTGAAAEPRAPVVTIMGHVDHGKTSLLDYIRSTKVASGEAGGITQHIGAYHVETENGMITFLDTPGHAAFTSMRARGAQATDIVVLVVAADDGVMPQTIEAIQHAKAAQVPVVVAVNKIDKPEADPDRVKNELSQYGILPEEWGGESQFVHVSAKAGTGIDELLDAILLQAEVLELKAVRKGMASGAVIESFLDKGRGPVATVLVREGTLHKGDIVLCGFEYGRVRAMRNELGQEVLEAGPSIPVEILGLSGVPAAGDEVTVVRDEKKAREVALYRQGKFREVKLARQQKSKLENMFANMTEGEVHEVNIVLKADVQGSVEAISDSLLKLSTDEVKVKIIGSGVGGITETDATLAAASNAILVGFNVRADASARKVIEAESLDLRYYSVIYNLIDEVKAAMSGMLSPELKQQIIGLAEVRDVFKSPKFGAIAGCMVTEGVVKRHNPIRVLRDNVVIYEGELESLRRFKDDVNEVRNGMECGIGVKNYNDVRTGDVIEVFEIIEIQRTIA
UniProt P08622: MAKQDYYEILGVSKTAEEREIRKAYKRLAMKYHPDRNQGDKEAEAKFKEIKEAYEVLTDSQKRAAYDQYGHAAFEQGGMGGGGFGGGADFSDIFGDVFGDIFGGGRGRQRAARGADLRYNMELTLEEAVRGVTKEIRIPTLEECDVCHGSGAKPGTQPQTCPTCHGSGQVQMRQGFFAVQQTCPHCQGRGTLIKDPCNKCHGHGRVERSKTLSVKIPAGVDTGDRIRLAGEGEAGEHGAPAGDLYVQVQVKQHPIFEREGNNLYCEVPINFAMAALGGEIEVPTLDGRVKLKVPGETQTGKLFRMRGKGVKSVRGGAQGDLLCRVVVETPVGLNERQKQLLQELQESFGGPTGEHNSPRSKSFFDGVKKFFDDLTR
UniProt P0AG30: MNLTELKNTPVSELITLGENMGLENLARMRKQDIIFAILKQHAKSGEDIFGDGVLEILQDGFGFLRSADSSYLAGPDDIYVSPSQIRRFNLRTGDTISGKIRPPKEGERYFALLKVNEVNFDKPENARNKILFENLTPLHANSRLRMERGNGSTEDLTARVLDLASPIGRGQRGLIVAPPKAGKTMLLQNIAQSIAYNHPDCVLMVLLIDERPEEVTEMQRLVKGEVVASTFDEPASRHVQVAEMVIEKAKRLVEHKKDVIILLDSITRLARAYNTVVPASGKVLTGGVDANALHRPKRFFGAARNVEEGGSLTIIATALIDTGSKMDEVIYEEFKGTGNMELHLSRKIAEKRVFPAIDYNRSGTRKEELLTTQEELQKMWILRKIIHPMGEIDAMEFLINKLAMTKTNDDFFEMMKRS
UniProt P0A850: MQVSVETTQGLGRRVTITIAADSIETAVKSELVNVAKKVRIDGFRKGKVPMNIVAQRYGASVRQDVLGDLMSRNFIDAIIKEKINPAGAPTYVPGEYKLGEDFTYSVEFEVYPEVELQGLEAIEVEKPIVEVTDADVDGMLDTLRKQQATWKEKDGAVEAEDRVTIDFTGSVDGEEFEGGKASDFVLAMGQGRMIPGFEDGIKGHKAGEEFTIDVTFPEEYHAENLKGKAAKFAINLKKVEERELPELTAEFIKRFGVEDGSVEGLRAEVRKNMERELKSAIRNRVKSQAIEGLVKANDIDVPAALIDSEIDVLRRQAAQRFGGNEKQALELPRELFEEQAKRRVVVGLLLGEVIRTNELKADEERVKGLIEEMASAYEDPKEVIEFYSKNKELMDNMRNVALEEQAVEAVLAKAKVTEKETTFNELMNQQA
UniProt P0A9P6: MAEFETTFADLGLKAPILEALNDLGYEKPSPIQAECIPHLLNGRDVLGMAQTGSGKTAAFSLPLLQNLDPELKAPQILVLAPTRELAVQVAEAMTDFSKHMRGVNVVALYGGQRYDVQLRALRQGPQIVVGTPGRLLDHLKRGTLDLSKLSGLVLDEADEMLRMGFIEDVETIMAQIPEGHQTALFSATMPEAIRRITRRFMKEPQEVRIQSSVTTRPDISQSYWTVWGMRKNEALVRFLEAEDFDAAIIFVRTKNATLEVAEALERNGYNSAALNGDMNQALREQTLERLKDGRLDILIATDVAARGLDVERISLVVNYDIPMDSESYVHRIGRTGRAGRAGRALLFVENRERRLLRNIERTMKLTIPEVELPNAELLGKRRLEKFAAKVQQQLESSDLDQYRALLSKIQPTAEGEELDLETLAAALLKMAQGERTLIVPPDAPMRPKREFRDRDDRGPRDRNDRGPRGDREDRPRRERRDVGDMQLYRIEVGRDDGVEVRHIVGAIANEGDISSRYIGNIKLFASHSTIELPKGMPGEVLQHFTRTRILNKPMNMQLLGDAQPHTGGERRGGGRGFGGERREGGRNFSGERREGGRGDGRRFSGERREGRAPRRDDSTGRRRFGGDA
UniProt P0A6X3: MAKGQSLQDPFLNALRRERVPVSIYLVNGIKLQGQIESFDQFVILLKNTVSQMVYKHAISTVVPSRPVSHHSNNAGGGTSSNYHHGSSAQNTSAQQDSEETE
UniProt P0A6K6: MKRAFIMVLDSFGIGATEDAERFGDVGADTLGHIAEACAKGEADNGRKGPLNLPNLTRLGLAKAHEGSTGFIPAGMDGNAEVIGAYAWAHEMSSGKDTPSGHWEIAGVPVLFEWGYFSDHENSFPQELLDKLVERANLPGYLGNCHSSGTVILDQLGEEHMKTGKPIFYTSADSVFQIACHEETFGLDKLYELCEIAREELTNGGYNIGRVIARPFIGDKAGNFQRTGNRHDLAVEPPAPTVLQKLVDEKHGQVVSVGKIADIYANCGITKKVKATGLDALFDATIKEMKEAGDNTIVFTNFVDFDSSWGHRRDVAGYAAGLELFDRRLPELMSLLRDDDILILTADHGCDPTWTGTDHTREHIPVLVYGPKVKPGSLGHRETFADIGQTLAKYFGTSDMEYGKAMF
UniProt P0A7L0: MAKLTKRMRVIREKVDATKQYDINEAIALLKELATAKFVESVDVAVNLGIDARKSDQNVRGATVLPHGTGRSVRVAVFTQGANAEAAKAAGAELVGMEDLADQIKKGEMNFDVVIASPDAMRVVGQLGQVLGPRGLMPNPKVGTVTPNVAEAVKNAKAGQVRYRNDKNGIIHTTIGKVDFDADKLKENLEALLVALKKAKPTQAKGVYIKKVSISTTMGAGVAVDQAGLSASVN
UniProt P63284: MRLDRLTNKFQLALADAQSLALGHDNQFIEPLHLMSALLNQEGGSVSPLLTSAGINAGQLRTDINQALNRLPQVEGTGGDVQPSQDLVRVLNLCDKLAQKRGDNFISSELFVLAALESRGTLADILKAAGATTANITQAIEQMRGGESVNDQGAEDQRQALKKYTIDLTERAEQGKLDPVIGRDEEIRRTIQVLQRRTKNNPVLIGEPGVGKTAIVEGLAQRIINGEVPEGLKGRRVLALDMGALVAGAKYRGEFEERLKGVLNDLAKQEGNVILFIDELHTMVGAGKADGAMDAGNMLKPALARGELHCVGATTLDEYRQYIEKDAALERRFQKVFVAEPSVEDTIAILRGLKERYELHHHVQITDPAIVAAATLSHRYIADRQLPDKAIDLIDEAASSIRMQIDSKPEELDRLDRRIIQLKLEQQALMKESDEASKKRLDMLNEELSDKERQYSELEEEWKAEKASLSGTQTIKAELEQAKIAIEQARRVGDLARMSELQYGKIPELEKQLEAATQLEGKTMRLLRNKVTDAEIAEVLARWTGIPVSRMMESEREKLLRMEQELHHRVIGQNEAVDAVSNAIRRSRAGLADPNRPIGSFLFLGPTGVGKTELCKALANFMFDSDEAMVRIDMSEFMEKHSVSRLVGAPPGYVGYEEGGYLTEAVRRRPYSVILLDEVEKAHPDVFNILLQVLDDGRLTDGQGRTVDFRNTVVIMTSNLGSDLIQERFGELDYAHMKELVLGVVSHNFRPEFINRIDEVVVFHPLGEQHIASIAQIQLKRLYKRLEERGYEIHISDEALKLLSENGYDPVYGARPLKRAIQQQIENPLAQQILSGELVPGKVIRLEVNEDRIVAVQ
UniProt P0A6H5: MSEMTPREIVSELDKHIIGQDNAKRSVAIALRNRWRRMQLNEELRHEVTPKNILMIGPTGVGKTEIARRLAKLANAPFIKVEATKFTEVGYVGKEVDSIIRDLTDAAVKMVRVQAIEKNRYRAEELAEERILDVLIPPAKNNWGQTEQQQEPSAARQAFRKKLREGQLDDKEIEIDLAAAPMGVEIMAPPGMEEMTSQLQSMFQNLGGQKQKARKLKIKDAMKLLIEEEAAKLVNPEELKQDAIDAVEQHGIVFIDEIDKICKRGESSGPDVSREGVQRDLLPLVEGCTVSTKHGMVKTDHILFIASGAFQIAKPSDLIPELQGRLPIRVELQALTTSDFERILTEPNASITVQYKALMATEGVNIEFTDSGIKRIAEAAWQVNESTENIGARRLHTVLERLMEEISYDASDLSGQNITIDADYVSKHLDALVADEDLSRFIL
UniProt P0A7J3: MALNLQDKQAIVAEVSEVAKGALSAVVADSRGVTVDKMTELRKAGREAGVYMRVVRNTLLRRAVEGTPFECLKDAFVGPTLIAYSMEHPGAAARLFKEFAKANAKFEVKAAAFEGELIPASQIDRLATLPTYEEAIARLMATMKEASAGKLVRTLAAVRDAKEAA
UniProt P0A6H1: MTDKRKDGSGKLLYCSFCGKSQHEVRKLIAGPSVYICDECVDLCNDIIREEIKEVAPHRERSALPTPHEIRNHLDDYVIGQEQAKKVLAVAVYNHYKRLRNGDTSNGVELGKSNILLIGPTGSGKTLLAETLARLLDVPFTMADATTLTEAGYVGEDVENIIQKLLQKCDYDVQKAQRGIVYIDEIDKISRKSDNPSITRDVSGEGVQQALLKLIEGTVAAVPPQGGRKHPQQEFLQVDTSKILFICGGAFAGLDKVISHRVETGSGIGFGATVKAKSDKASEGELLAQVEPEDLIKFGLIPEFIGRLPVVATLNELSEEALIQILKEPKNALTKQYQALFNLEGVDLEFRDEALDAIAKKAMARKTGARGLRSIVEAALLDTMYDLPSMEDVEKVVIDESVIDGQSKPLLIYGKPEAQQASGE

B1: Polyribonucleotide nucleotidyltransferase (protein, UniProt P05055 1-711)
chain: MLNPIVRKFQYGQHTVTLETGMMARQATAAVMVSMDDTAVFVTVVGQKKAKPGQDFFPLTVNYQERTYAAGRIPGSFFRREGRPSEGETLIARLIDRPIRPLFPEGFVNEVQVIATVVSVNPQVNPDIVAMIGASAALSLSGIPFNGPIGAARVGYINDQYVLNPTQDELKESKLDLVVAGTEAAVLMVESEAQLLSEDQMLGAVVFGHEQQQVVIQNINELVKEAGKPRWDWQPEPVNEALNARVAALAEARLSDAYRITDKQERYAQVDVIKSETIATLLAEDETLDENELGEILHAIEKNVVRSRVLAGEPRIDGREKDMIRGLDVRTGVLPRTHGSALFTRGETQALVTATLGTARDAQVLDELMGERTDTFLFHYNFPPYSVGETGMVGSPKRREIGHGRLAKRGVLAVMPDMDKFPYTVRVVSEITESNGSSSMASVCGASLALMDAGVPIKAAVAGIAMGLVKEGDNYVVLSDILGDEDHLGDMDFKVAGSRDGISALQMDIKIEGITKEIMQVALNQAKGARLHILGVMEQAINAPRGDISEFAPRIHTIKINPDKIKDVIGKGGSVIRALTEETGTTIEIEDDGTVKIAATDGEKAKHAIRRIEEITAEIEVGRVYTGKVTRIVDFGAFVAIGGGKEGLVHISQIADKRVEKVTDYLQMGQEVPVKVLEVDRQGRIRLSIKEATEQSQPAAAPEAPAAEQGE
B2: Cold-shock chaperone protein YdfK (protein, UniProt P76154 1-77)
chain: MKSKDTLKWFPAQLPEVRIILGDAVVEVAKQGRPINTRTLLDYIEGNIKKKSWLDNKELLQTAISVLKDNQNLNGKM
B3: UspA domain protein UspG (UP12) (protein, UniProt P39177 1-142)
chain: MYKTIIMPVDVFEMELSDKAVRHAEFLAQDDGVIHLLHVLPGSASLSLHRFAADVRRFEEHLQHEAQERLQTMVSHFTIDPSRIKQHVRFGSVRDEVNELAEELGADVVVIGSRNPSISTHLLGSNASSVIRHANLPVLVVR
B4: Small heat shock protein IbpA (protein, UniProt P0C054 1-137)
chain: MRNFDLSPLYRSAIGFDRLFNHLENNQSQSNGGYPPYNVELVDENHYRIAIAVAGFAESELEITAQDNLLVVKGAHADEQKERTYLYQGIAERNFERKFQLAENIHVRGANLVNGLLYIDLERVIPEAKKPRRIEIN
B5: Succinate dehydrogenase flavoprotein (protein, UniProt P0AC41 1-588)
chain: MKLPVREFDAVVIGAGGAGMRAALQISQSGQTCALLSKVFPTRSHTVSAQGGITVALGNTHEDNWEWHMYDTVKGSDYIGDQDAIEYMCKTGPEAILELEHMGLPFSRLDDGRIYQRPFGGQSKNFGGEQAARTAAAADRTGHALLHTLYQQNLKNHTTIFSEWYALDLVKNQDGAVVGCTALCIETGEVVYFKARATVLATGGAGRIYQSTTNAHINTGDGVGMAIRAGVPVQDMEMWQFHPTGIAGAGVLVTEGCRGEGGYLLNKHGERFMERYAPNAKDLAGRDVVARSIMIEIREGRGCDGPWGPHAKLKLDHLGKEVLESRLPGILELSRTFAHVDPVKEPIPVIPTCHYMMGGIPTKVTGQALTVNEKGEDVVVPGLFAVGEIACVSVHGANRLGGNSLLDLVVFGRAAGLHLQESIAEQGALRDASESDVEASLDRLNRWNNNRNGEDPVAIRKALQECMQHNFSVFREGDAMAKGLEQLKVIRERLKNARLDDTSSEFNTQRVECLELDNLMETAYATAVSANFRTESRGAHSRFDFPDRDDENWLCHSLYLPESESMTRRSVNMEPKLRPAFPPKIRTY
B6: RNA helicase RhlB (protein, UniProt P0A8J8 1-421)
chain: MSKTHLTEQKFSDFALHPKVVEALEKKGFHNCTPIQALALPLTLAGRDVAGQAQTGTGKTMAFLTSTFHYLLSHPAIADRKVNQPRALIMAPTRELAVQIHADAEPLAEATGLKLGLAYGGDGYDKQLKVLESGVDILIGTTGRLIDYAKQNHINLGAIQVVVLDEADRMYDLGFIKDIRWLFRRMPPANQRLNMLFSATLSYRVRELAFEQMNNAEYIEVEPEQKTGHRIKEELFYPSNEEKMRLLQTLIEEEWPDRAIIFANTKHRCEEIWGHLAADGHRVGLLTGDVAQKKRLRILDEFTRGDLDILVATDVAARGLHIPAVTHVFNYDLPDDCEDYVHRIGRTGRAGASGHSISLACEEYALNLPAIETYIGHSIPVSKYNPDALMTDLPKPLRLTRPRTGNGPRRTGAPRNRRRSG

Columns and labels:
[1] = biological target: T1, polyhistidine-tagged NudC (NudC-His) (E. coli) (UniProt P32664); assay: affinity purification with mass spectrometry; proteome-wide screen: NudC-His expressed in E. coli BL21(DE3)RIL cells (16°C or 37°C); Ni2+ resin, washes, NudC-associated proteins eluted with 8 M urea; LC-MS^E; proteins in at least two of three replicates and not in controls without NudC
T1 sequence: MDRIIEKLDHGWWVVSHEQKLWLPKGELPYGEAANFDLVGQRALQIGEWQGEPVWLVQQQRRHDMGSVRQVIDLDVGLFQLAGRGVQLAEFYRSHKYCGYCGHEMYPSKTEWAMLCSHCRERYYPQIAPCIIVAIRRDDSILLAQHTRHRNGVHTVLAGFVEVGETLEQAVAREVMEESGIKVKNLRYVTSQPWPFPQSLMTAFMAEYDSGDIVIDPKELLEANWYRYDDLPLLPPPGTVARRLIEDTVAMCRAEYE

[2] = biological target: T1, polyhistidine-tagged NudC (NudC-His) (E. coli); assay: affinity purification with mass spectrometry; proteome-wide screen: purified NudC-His added to E. coli BL21(DE3)RIL lysate (cells grown at 16°C or 37°C); Ni2+ resin, washes, NudC-associated proteins eluted with 8 M urea; LC-MS^E; proteins in at least two of three replicates and not in controls without NudC; only the target purified
[3] = biological target: T1, polyhistidine-tagged NudC (NudC-His) (E. coli); assay: affinity purification with mass spectrometry; proteome-wide screen: NudC-His expressed in E. coli BL21(DE3)RIL cells (16°C or 37°C); Ni2+ resin, washes, NudC-associated proteins eluted with 8 M urea; LC-MS^E; proteins in at least two of three replicates and not in controls without NudC; remark: listed apart in the source

Molecule	binding [1]	binding [2]	binding [3]
Heat-shock chaperone protein HtpG (from UniProt P0A6Z3 1-624)	binds		
Translation initiation factor IF-2 (from UniProt P0A705 1-890)	binds		
Chaperone protein DnaJ (from UniProt P08622 1-376)		binds	
50S ribosome subunit protein L11 (from UniProt P0A7J7 1-142)		binds	
Transcription termination factor Rho (from UniProt P0AG30 1-419)	binds		
CRM domain-containing protein (E. coli (endogenous in BL21(DE3)RIL))	binds		
Trigger factor (from UniProt P0A850 1-432)	binds		
DEAD-box RNA helicase CsdA (from UniProt P0A9P6)		binds	
RNA chaperone protein Hfq (from UniProt P0A6X3 1-102)	binds		
Phosphopentomutase (from UniProt P0A6K6 1-407)		binds	
50S ribosome subunit protein L1 (from UniProt P0A7L0 1-234)		binds	
Heat-shock chaperone protein ClpB (from UniProt P63284 1-857)	binds		
tRNA/rRNA methyltransferase (SpoU) (E. coli (endogenous in BL21(DE3)RIL))	binds		
Protease ATPase subunit HslU (from UniProt P0A6H5 1-443)	binds		
ribonuclease E (RNase E) (from UniProt P21513 1-1061)	no binding	no binding	
50S ribosome subunit protein L10 (from UniProt P0A7J3 1-165)		binds	
Clp protease ATP-binding subunit ClpX (from UniProt P0A6H1 1-424)	binds		
B1		binds	
B2		binds	
B3		binds	
B4		binds	
B5		binds	
B6		no binding	no binding

These are yes or no findings as the source states them, for the method shown. Binding seen in cells or lysates may run through a third protein. A yes stands for co-enrichment or nearness to the bait. Other partners may have been found. No binding means not detected with the bait. Sequences can lack the tags named with a protein.
